Values of other authors, collected in US9682051B2, “Acyclovir and meloxicam combination therapy for functional somatic syndromes” (INNOVATIVE MED CONCEPTS, LLC, priority 2012, dated 2017).
At least one structure is not confirmed: it was looked up by name or label, or the drawing left a doubt.

Test system: herpes viral reactivation
Conditions: nervous system of mice

In the case of `Cc1ccc(-c2cc(C(F)(F)F)nn2-c2ccc(S(N)(=O)=O)cc2)cc1` [celecoxib], the “Effect on hyperthermic stress-induced herpes viral reactivation” value is given as “suppress hyperthermic stress-induced herpes viral reactivation”.
